Laboratory results from paper PMC9606368, “Membrane mediated phase separation of the bacterial nucleoid occlusion protein Noc” (Scientific Reports, 2022).
Results are given in words; binding and its absence hold for the method and conditions named.

Biological target: T1, nucleoid occlusion protein Noc (wild type) (B. subtilis) (UniProt P37524)
T1 sequence: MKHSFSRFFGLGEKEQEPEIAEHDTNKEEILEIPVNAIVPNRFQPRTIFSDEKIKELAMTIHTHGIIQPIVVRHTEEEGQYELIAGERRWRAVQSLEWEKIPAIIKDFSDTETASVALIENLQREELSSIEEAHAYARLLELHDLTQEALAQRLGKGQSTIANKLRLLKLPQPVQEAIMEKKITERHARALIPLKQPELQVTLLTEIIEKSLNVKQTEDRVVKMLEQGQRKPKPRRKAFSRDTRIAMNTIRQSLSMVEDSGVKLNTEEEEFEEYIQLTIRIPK
Assay: QCM-D; supported lipid bilayer on SiO2-coated quartz sensor; 150 µl of sample flown over at 0.1 ml/min; Noc with B. subtilis FtsZ compared to Noc alone; non-phase separated state; both purified

B1: B. subtilis FtsZ (protein)
chain: MLEFETNIDGLASIKVIGVGGGGNNAVNRMIENEVQGVEYIAVNTDAQALNLSKAEVKMQIGAKLTRGLGAGANPEVGKKAAEESKEQIEEALKGADMVFVTAGMGGGTGTGAAPVIAQIAKDLGALTVGVVTRPFTFEGRKRQLQAAGGISAMKEAVDTLIVIPNDRILEIVDKNTPMLEAFREADNVLRQGVQGISDLIATPGLINLDFADVKTIMSNKGSALMGIGIATGENRAAEAAKKAISSPLLEAAIDGAQGVLMNITGGTNLSLYEVQEAADIVASASDQDVNMIFGSVINENLKDEIVVTVIATGFIEQEKDVTKPQRPSLNQSIKTHNQSVPKREPKREEPQQQNTVSRHTSQPADDTLDIPTFLRNRNKRG
  binding: no binding
